The target of experiment [1] is proteasome subunit alpha type-3 (PSMA3), GAL4-DB fusion (human) (UniProt P25788). Kind of experiment: two-hybrid; GAL4-based yeast two-hybrid; screen of the human ORFeome v3.1 with Hoxa2 as bait and as prey, then retest with AD-Hoxa2 as prey and DB fusions as bait; strains Y8800 and Y8930 mated at 30°C; GAL1-HIS3 reporter on medium lacking histidine, leucine and tryptophan; cycloheximide plates as control for autoactivation.

The chains behind the UniProt entries cited, without tags or fusion partners.
UniProt P25788: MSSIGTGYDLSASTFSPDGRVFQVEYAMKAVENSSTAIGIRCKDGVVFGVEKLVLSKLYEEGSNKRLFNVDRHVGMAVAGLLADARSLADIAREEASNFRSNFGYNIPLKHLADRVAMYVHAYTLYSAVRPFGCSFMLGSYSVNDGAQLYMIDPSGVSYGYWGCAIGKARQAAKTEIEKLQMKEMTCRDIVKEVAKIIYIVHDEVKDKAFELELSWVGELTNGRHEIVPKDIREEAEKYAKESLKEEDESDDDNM
UniProt P49721: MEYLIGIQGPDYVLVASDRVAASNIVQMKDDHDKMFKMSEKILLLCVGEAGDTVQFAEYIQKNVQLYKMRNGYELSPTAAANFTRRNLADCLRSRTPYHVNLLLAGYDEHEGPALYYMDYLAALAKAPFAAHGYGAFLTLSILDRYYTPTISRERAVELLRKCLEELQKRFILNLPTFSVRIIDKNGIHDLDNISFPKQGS
UniProt P09022: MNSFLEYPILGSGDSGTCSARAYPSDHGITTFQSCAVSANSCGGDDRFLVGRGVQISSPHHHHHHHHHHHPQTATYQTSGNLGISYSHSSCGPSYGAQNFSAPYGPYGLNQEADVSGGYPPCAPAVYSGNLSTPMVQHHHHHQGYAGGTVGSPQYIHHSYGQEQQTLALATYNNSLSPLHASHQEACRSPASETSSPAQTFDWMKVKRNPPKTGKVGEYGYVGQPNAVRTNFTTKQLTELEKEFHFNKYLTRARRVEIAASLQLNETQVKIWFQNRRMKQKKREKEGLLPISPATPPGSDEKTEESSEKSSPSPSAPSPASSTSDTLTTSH
UniProt P31245: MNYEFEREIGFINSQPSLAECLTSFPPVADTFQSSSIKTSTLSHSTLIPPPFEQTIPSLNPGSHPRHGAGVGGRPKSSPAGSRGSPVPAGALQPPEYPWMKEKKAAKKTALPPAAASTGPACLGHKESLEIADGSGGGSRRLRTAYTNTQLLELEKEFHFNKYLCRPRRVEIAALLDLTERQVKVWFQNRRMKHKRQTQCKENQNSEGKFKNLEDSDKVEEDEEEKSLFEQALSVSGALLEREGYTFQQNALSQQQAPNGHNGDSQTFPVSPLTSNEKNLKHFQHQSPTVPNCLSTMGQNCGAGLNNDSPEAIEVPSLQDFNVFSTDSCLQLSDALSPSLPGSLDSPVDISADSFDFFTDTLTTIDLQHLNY

The target in experiment [2] is proteasome subunit beta type-2 (PSMB2), GAL4-DB fusion (human) (UniProt P49721). The experiment is described as above.
For experiment [3], the target named is T1, N-terminal glutathione S-transferase (GST)-RCHY1 (full length) fusion protein (human) (UniProt Q96PM5).
T1 sequence: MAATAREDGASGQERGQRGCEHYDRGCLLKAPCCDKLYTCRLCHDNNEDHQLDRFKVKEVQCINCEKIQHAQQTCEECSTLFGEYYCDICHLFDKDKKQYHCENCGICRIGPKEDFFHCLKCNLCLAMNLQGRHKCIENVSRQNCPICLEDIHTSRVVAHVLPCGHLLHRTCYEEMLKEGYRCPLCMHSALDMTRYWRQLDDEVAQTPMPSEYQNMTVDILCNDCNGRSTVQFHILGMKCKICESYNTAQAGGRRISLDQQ
Kind of experiment: pull-down; co-precipitation on glutathione-agarose beads from lysates of HEK293T cells co-transfected with the GST fusion and the FLAG fusion; IPLS lysis buffer (0.5% NP-40, 20 mM Tris-HCl pH 7.5, 0.5 mM EDTA, 120 mM NaCl, 10% glycerol), beads overnight at 4 °C; blot with anti-FLAG M2; for the pairs with GST-RCHY1 the cells were treated with the proteasome inhibitor MG132 for 15 hours before lysis.

Experiment [4] concerns the target N-terminal triple FLAG fusion Hoxa1 (UniProt P09022). Described as above.
For experiment [5], the target named is N-terminal glutathione S-transferase (GST)-PSMB2 fusion protein (human) (UniProt P49721). The description is as above.
The target in experiment [6] is N-terminal glutathione S-transferase (GST)-PSMA3 fusion protein (human) (UniProt P25788). The experiment is described as above.

No constants are given. Whether binding was seen depends on the method and setting. For some of these results: In cells and extracts the contact can be indirect. Some binding calls cover weakened binding; strength is not graded here. For some of these results: Where a sequence is shown, tags or fusion partners need not be part of it.

Regarding “Hoxa2 (GAL4 fusion for yeast two-hybrid) (from UniProt P31245 1-372)”, the binding result in experiment [1] and in experiment [2] was “binds” throughout.

For the substance “N-terminal triple FLAG fusion Hoxa1 (from UniProt P09022 1-331)”, the binding result in experiment [3] and in experiment [4] was “binds” in each case.

On to “N-terminally triple-FLAG-tagged Hoxa2 (from UniProt P31245 1-372)”, for which the binding entry in experiment [5], in experiment [3] and in experiment [6] was “binds” each time.

The values above are taken from article PMC3820564.
